Measurements reported in PMC9226502.
No signal at the amounts used counts as a negative. Tags and fusion partners may be left off the protein sequences shown.

Target: T1, MutL WT (Escherichia coli) (UniProt P23367)
T1 sequence (looked up): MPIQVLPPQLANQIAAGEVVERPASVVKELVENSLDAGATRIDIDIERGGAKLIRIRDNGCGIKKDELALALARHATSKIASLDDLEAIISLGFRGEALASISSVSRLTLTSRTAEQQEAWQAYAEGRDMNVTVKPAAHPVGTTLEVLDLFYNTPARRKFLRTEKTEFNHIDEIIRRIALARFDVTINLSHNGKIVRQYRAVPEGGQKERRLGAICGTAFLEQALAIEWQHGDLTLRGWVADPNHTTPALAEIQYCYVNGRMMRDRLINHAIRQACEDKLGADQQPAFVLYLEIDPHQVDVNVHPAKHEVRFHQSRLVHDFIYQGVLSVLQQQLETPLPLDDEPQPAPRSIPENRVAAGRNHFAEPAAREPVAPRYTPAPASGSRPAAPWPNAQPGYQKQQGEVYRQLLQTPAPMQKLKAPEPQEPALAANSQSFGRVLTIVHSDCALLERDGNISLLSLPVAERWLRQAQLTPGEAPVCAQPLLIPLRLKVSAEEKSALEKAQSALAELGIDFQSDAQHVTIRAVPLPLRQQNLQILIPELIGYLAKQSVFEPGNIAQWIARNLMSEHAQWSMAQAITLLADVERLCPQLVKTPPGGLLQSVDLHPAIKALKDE
Assay: fluorescence anisotropy
Details: no nucleotide; FA: 20 mM HEPES pH 7.5, 150 mM NaCl, 5 mM MgCl2, 0.08% Tween 20, 20% glycerol, 2 mM DTT, 5 nM DNA, 25 C; recombinant protein; residues 1-615; label: 5'-FAM on primer S8

## AAGTGTCTGTCGTTTTAAGGACGAAGGACTC / GAGTCCTTCGTCCTT [3' resected primer/template junction]
  binding result: no binding
